From PubChem BioAssay AID2685 (National Center for Advancing Translational Sciences (NCATS), 2010)
Hit rate of the full screen: of about 320,000 compounds, about 2,100 (0.66%) were called active. The shares of active, inactive and inconclusive entries below differ from those in the screen. The call rests on the fitted dose curve; in most records, active means well fitted inhibition curve with a large enough effect in the signal ratio, with a control signal flat (not every such curve was filed as active); inconclusive means small, poorly fitted or top-dose-only effect, or effect the other way, or a change in a side signal; inactive means flat fitted curve, though single readings scatter; the % refers to the signal ratio. Potencies of inconclusive entries are doubtful fits and often do not repeat.

Experiment: qHTS Assay for Lipid Storage Modulators in Drosophila S3 Cells
Details: BODIPY lipid droplet fluorescence, 18-24 h, cells fed with added oleic acid; lipid storage change, negative = inhibition: at 46.1 µM (top of the series) unless noted
Summary of the method: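 Drosophila S3 cells loaded with oleic acid (400 uM, as added) and compounds at several concentrations; lipid droplets imaged by 488-nm laser-scanning cytometry, 500–530 nm intensity and object ratio to cell channel. Percent activity normalized to 20 uM Triacsin C.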
On the % scale 0 is the no-effect control and ±100 the full control effect; potency means the concentration at half of the fitted maximal effect.

| Structure (SMILES) | lipid storage change, negative = inhibition | Potency |
| --- | --- | --- |
| Cc1cc(C)c(S(=O)(=O)NC2CC3CCC2C3)c(C)c1 (stereo unspecified) | inconclusive: -29% | – |
| Cc1ccccc1CC(=O)Nc1cccc(S(=O)(=O)N2CCCC2)c1 | – | inconclusive: 1.64 µM [falling, partial curve, poor fit] |
| O=C(CSCc1c(Cl)cccc1Cl)Nc1ccccc1C(=O)N1CCOCC1 | – | inconclusive: 2.91 µM [activator, partial curve] |
| CC(CNCc1ccc2c(c1)OCO2)NCc1ccc2c(c1)OCO2 (stereo unspecified) | inconclusive: 6.28% | – |
| COCCOC(=O)C1=C(C)N=C2SCCC(=O)N2C1c1ccc(OC(=O)c2ccco2)cc1 (stereo unspecified) | inconclusive: -32.5% | – |
| COc1ccc(CNc2nccs2)cc1 | – | inconclusive: 29.1 µM [activator, single point] |
| O=C(Nc1ccccc1)N1CCN(Cc2ccc(Cl)cc2)CC1 | inconclusive: -27.1% | – |
| O=[N+]([O-])c1ccc(N2CCN(Cc3ccc(Br)o3)CC2)cc1 | inconclusive: -100% | – |
| Cc1ccc(C)c(Cn2c3ccccc3c3cnn(CC(=O)NCCN4CCOCC4)c(=O)c32)c1 | – | inconclusive: 20.6 µM [falling, partial curve, poor fit] |
| Cc1ccc(NC(=O)C(=O)NCc2ccccn2)cc1 | inconclusive: -9.52% | – |
| Cc1ccc(S(=O)(=O)N2CCCCC2)cc1C(=O)Nc1ccc2cn[nH]c2c1 | – | inconclusive: 0.0058 µM [activator, full curve, poor fit] |
| CCSCc1nnc(SCC(=O)Nc2nc(C)cs2)n1C | inconclusive: -32.9% | – |
| CCCc1cc(=O)oc2c(C)c(OCC(=O)N3CCC(C(=O)O)(c4ccccc4)CC3)ccc12 | inconclusive: 30.5% | – |
| COc1cccc(CN(CC(=O)NCc2ccccc2)C(=O)c2csnn2)c1 | – | inconclusive: 0.0052 µM [falling, full curve, poor fit] |
| CSCC[C@H](NC(=O)OC(C)(C)C)C(=O)N1CCC(C(=O)N[C@@H](C)C(=O)O)CC1 | inconclusive: -0.771% | – |
| O=C(/C=C/c1ccccc1)Nc1nnc(-c2ccco2)o1 | inconclusive: 21.4% [at 9.22 µM] | – |
| Cc1ccccc1CN1C[C@@H]2C[C@@H](c3cnc(N4CCOCC4)s3)N3CCC[C@@]23C1=O | inactive | – |
| O=C(c1cc2ccccc2o1)c1cccs1 | – | inconclusive: 32.6 µM [falling, single point] |
| CCOC(=O)CC(NS(=O)(=O)c1ccc2[nH]c(=O)sc2c1)c1ccc(C)cc1 (stereo unspecified) | – | inconclusive: 16.4 µM [falling, single point] |
| CC(=O)c1ccc(OC(C)C)c(CC(C(N)=O)C(N)=O)c1 | – | active: 25.9 µM |
| CC(C)CC(=O)NNC(=S)Nc1ccc(S(N)(=O)=O)cc1 | – | inconclusive: 29.1 µM [cytotoxic, single point] |
| CCOC(=O)N1CCN(C(=O)c2ccc3c(=O)n(CCc4ccc(OC)c(OC)c4)c(=O)[nH]c3c2)CC1 | – | active: 1.3 µM |
| Cc1ccc(S(=O)(=O)Nc2cccc(-n3cnnn3)c2)cc1 | inconclusive: -53.7% | – |
| O=C(CSc1ncccc1C(=O)O)c1ccc2ccccc2c1 | inconclusive: -11.5% | – |
| O=C(COC(=O)c1ccccc1C(=O)c1ccc(Cl)cc1)NCC1CCCO1 (stereo unspecified) | inconclusive: 52.9% | – |
| CC1CN(C(=O)CN2C(=O)NC(C)(c3ccccc3)C2=O)CC(C)O1 (stereo unspecified) | – | inconclusive: 7.31 µM [falling, partial curve, poor fit] |

An excerpt of these results, as comma-separated lines.
Structure (SMILES),"lipid storage change, negative = inhibition",Potency
O=C(CSCc1c(Cl)cccc1Cl)Nc1ccccc1C(=O)N1CCOCC1,–,"inconclusive: 2.91 µM [activator, partial curve]"
CC(CNCc1ccc2c(c1)OCO2)NCc1ccc2c(c1)OCO2 (stereo unspecified),inconclusive: 6.28%,–
COCCOC(=O)C1=C(C)N=C2SCCC(=O)N2C1c1ccc(OC(=O)c2ccco2)cc1 (stereo unspecified),inconclusive: -32.5%,–
COc1ccc(CNc2nccs2)cc1,–,"inconclusive: 29.1 µM [activator, single point]"
O=C(Nc1ccccc1)N1CCN(Cc2ccc(Cl)cc2)CC1,inconclusive: -27.1%,–
O=[N+]([O-])c1ccc(N2CCN(Cc3ccc(Br)o3)CC2)cc1,inconclusive: -100%,–
Cc1ccc(C)c(Cn2c3ccccc3c3cnn(CC(=O)NCCN4CCOCC4)c(=O)c32)c1,–,"inconclusive: 20.6 µM [falling, partial curve, poor fit]"
Cc1ccc(NC(=O)C(=O)NCc2ccccn2)cc1,inconclusive: -9.52%,–
Cc1ccc(S(=O)(=O)N2CCCCC2)cc1C(=O)Nc1ccc2cn[nH]c2c1,–,"inconclusive: 0.0058 µM [activator, full curve, poor fit]"
CCSCc1nnc(SCC(=O)Nc2nc(C)cs2)n1C,inconclusive: -32.9%,–
CCCc1cc(=O)oc2c(C)c(OCC(=O)N3CCC(C(=O)O)(c4ccccc4)CC3)ccc12,inconclusive: 30.5%,–
COc1cccc(CN(CC(=O)NCc2ccccc2)C(=O)c2csnn2)c1,–,"inconclusive: 0.0052 µM [falling, full curve, poor fit]"
CSCC[C@H](NC(=O)OC(C)(C)C)C(=O)N1CCC(C(=O)N[C@@H](C)C(=O)O)CC1,inconclusive: -0.771%,–
O=C(/C=C/c1ccccc1)Nc1nnc(-c2ccco2)o1,inconclusive: 21.4% [at 9.22 µM],–
Cc1ccccc1CN1C[C@@H]2C[C@@H](c3cnc(N4CCOCC4)s3)N3CCC[C@@]23C1=O,inactive,–

Following part:

| Structure (SMILES) | lipid storage change, negative = inhibition | Potency |
| --- | --- | --- |
| CCOC(=O)c1ccc(N2C(=O)CC(N3CCN(C(=O)c4ccco4)CC3)C2=O)cc1 (stereo unspecified) | – | inconclusive: 29.1 µM [falling, single point] |
| CC(Cl)C(=O)Nc1c2c(nn1-c1ccccc1)CSC2 (stereo unspecified) | inconclusive: 7.2% | – |
| Clc1ccc(Cl)c(OCCCCN2CCNCC2)c1 | – | inconclusive: 29.1 µM [activator, single point] |
| Cc1ccnc(NS(=O)(=O)c2ccccc2)n1 | inconclusive: -21.7% | – |
| Cc1ccc(N2C(=O)C3C4C=CC(CC4)C3C2=O)c([N+](=O)[O-])c1 (stereo unspecified) | inactive | – |
| O=C(COc1ccccc1)Nc1ccncc1 | – | inconclusive: 6.51 µM [falling, single point] |
| Cc1ccnc(NC(=O)CCCc2c[nH]c3ccccc23)c1 | inconclusive: 37.5% | – |
| Cc1nnc(SCC(=O)Nc2ccccc2NC(=O)CSc2nnc(C)s2)s1 | inconclusive: 7.94% | – |
| O=C(Cc1ccsc1)NNC(=O)c1ccccc1Cl | inconclusive | – |
| CCOc1ccc(C(=O)Nc2ccc(NC(=O)c3ccco3)c(Cl)c2)cc1Cl | – | inconclusive: 0.116 µM [rising, full curve, poor fit] |
| CCOc1ccc(/C=N/NC(=O)c2csc(C)c2C)c(OCC)c1 | – | inconclusive: 16.4 µM [activator, partial curve] |
| N#Cc1ccccc1S(=O)(=O)N1CCC(C(=O)NCc2ccccc2CN2CCCC2)CC1 | inconclusive: 7.67% | – |
| CC(OC(=O)c1ccccc1Br)C(=O)Nc1nc(-c2cccc([N+](=O)[O-])c2)cs1 (stereo unspecified) | inconclusive: 4.07% | – |
| CCOC(=O)c1ccc[n+](C(C)C(=O)c2ccc(-c3ccccc3)cc2)c1 (stereo unspecified) | – | inconclusive: 32.6 µM [cytotoxic, single point] |
| COc1ccc(/C=N/NC(=O)c2cc3cc(OC)c(OC)cc3[nH]2)cc1 | inconclusive: -27.2% | – |
| O=C(COC(=O)c1ccc[n+]([O-])c1)Nc1c(Br)cc([N+](=O)[O-])cc1Br | inconclusive: 33.6% | – |
| Cn1ncc([N+](=O)[O-])c1C(=O)Nc1ccc(-c2nc3ccccc3o2)cc1 | inconclusive: -2.03% | – |
| CC(=O)Nc1ccc2sccc2c1 | inconclusive: -7.76% | – |
| CCC(=O)Oc1ccc(C(=O)Nc2cccc(C(=O)NC(C)(C)C)c2)cc1 | inconclusive: 44.1% | – |
| N#C/C(=C/c1cn(CC(=O)O)c2ccccc12)C(=O)NCc1ccccc1 | inconclusive: -7.1% | – |
| Cc1cc(C(=O)COc2ccc(Br)cc2F)c(C)n1C1CC1 | – | inconclusive: 10.3 µM [falling, partial curve, poor fit] |
| COc1ccc(-c2cc(=O)c3c(OC)c(OC)c(OC)c(OC)c3o2)cc1OC | inconclusive: -18.9% | – |
| CC(=O)NC1CCN(CC(=O)Nc2cccc([N+](=O)[O-])c2)CC1 | inconclusive: 33.3% | – |
| CCCCCCOC(=O)Nc1ccc(S(=O)(=O)Nc2cccc([N+](=O)[O-])c2)cc1 | inconclusive: -1.63% | – |
| CCOC(=O)C(C)Sc1nc(=O)n2cc(C)ccc2n1 (stereo unspecified) | inconclusive: -38% | – |
| Cc1ccc(CC(=O)Nc2ccc(F)c([N+](=O)[O-])c2)cc1 | inconclusive: -0.448% | – |

| Structure (SMILES) | lipid storage change, negative = inhibition | Potency |
| --- | --- | --- |
| Cc1cccc(C)c1NC(=O)CCN1C(=O)C2C3CCC(C3)C2C1=O (stereo unspecified) | – | inconclusive: 29.1 µM [activator, partial curve] |
| Cc1ccc(C(=O)NCCc2cccs2)cc1 | inconclusive: -16.2% [at 9.22 µM] | – |
| CCOc1ccc(NS(=O)(=O)c2coc(C(N)=O)c2)cc1 | inconclusive: 18% | – |
| COc1ccc(C(=O)N2CCNC(=O)C2CC(=O)Nc2cc(Cl)ccc2OC)cc1 (stereo unspecified) | inconclusive: -100% | – |
| Clc1ccc(-c2ccccc2)cn1 | – | inconclusive: 11.6 µM [activator, partial curve] |
| CC(Oc1ccccc1)C(=O)OCC(=O)N1CC(=O)Nc2ccccc21 (stereo unspecified) | inconclusive: 47.5% | – |
| CC(=O)c1cccc(NC(=O)CN(C2CCCCC2)S(C)(=O)=O)c1 | inactive | – |
| CC(OC(=O)CCCNC(=O)c1ccc(Cl)cc1)C(=O)N(C)Cc1ccccc1 (stereo unspecified) | inconclusive: -100% | – |
| CCCC(C)c1nnc(NC(=O)COc2ccc3c(c2)OCO3)s1 (stereo unspecified) | – | inconclusive: 0.0046 µM [activator, full curve, poor fit] |
| O=C(NC1CCCC1)c1ccc(Cn2c(=O)[nH]c3ccsc3c2=O)cc1 | inconclusive: 3.75% | – |
| CC1CN(c2cc(=O)n(-c3ccc(Cl)cc3)c(=O)[nH]2)CC(C)O1 (stereo unspecified) | inconclusive: 10.6% [at 9.22 µM] | – |
| Nc1n[nH]c2cc(=O)n(-c3ccc(Cl)cc3)nc12 | inconclusive: -51.9% | – |
| O=C(c1cccnc1Cl)N1CCOCC1 | – | inconclusive: 0.651 µM [falling, single point] |
| CC(C)[C@H](NC(=O)CCCn1nnc2ccccc2c1=O)C(=O)O | inconclusive: -22.4% | – |
| Cc1ccc(Nc2cc(-n3cccn3)ncn2)c(C)c1 | – | inconclusive: 0.206 µM [rising, full curve, poor fit] |
| COC(=O)COC(=O)CC(CC(N)=O)c1ccccc1 (stereo unspecified) | – | inconclusive: 0.731 µM [activator, full curve, poor fit] |
| O=C(COc1ccc(Cl)cc1Cl)N1CCCN(C(=O)COc2ccc(Cl)cc2Cl)CC1 | inconclusive: 11.1% | – |
| CC(C)Cn1c(N)c(C(=O)CSc2nc3ncc(Cl)cc3[nH]2)c(=O)n(C)c1=O | inconclusive: 3.72% | – |
| Cc1oc(-c2cccc(C(F)(F)F)c2)nc1CN1CCC[C@H]1CO | inconclusive: 2.5% | – |
| C=CCNC(=S)N1CCc2[nH]c3ccccc3c2C1 | – | inconclusive: 6.51 µM [activator, partial curve, poor fit] |
| COc1ccc(S(=O)(=O)NC2CCN(Cc3ccccc3)CC2)cc1NC(C)=O | inconclusive: -13.5% | – |
| CCN(CC(O)COCc1ccc(Cl)cc1)C1CCCCC1 (stereo unspecified) | inconclusive: 3.48% | – |
| OC(COc1ccc(F)cc1)CN1CCN(CC(O)COc2ccc(F)cc2)CC1 (stereo unspecified) | inconclusive: -5.06% | – |
| O=[N+]([O-])c1ccc(COc2ccc(Br)cc2CN2CCOCC2)cc1 | inconclusive: 12.8% | – |
